From US11497796B2, “Agents directed against a cis RGMa/neogenin interaction or lipid rafts and use of the same in methods of treatment” (UNIVERSITY HEALTH NETWORK, priority 2013, dated 2022)

B1: 4Ig: four immunoglobulin-like domains of Neogenin, amino acids 1 to 383 of Accession No. AAC59662 (SEQ ID NO:1) (protein, listed as Gallus gallus)
chain: RSGPRSPLTGSVVRTFTPFYFLVEPMDILSVRGASVIMNCSSYCETPPKIEWKKDGTLLNLVSDDRRQLLPDGSLLINSVVHSKHNKPDEGYYQCVATVESLGSIVSRTAKLTVAGLPRFTSQPELSSVYKGNSAILNCEVNVDLAPFVRWEQDRQPLSLDDRVFKLPSGALLIGNATDTDGGFYRCVIESGGTPKYSEEAELKILPDPEEPQSLVFVRQPSSLTKVTGQNAVFPCVAGGFPTPYVRWTKNGEELITEDSERFALRAGGSLLISDVTEEDVGTYTCIADNENETIEAQAELAVQVPPEFLKRPANIYAHESMDIVFECEVTGKPTPTVKWVKNGDVVIPSDYFKIVKEHNLQVLGLVKSDEGFYQCIAENDVGNAQAGAQLIILDLDVAIPTLPPTSLTSATNDHLAPATTGPLPTAPRDVVATLVSTRFIRLTWRTPVSDPQGDNLTYSIFYTKEGINRERVENTSRPGETQVMIQNLMPETVYVFRVVAQNKHGHGESSAPLKVATQPEVQLPGPAPNIRAYAGSPTSVTVTWETPLSGNGEIQNYKLYYMEKGQDSEQDVDVAGLSYTITGLKKYTEYSFRVVAYNKHGPGVSTQDVVVRTLSDVPSAAPQNLTLEARNSKSIMLHWQPPPAGTHSGQITGYKIRYRKVSRKSDVTESVGGTQLFQLIEGLERGTEYNFRIAAMTVNGTGPATDWVSAETFESDLDESRVPEVPSSLHVRPLVTSIVVSWTPPENQNIVVRGYAIGYGIGSPHAQTIKVDYKQRYYTIENLDPSSHYVITLKAFNNVGEGIPLYESAVTRPHSDTSEVDLFVINAPYTPVPDPSPMMPPVGVQASILSHDTIRITWADNSLPKNQKITDARYYTVRWKTNIPANTKYKTANATTLSYLVTGLKPNTLYEFSVMVTKGRRSSTWSMTAHGTTFELVPTSPPKDVTVVSKEGKPRTIIVNWQPPSEANGKITGYIIYYSTDVNAEIHDWVIEPVVGNRLTHQIQELTLDTPYYFKIQARNSKGMGPMSEAVQFRTPKAESSDKMPNDQASGSAGKGSRPVDVGPDYKPPLSGSNSPHGSPTSPLDSNMLLVIIVSVGVITIVIVVIVAVFCTRRTTSHQKKKRAACKSVNGSHKYKGNSKDVKPPDLWIHHERLELKPIDKSPDPNPIMTDTPIPRNSQDITPVDNSMDSNIHQRRNSYRGHESEDSMSTLAGRRGMRPKMMMPFDSQPPQPVISAHPIHSLDNPHHHFHSGSLASPTRSYLHHQVSPWPVGTSMSHSDRANSTESVRNTPSSDTMPASSSQPCADHQDPDSSSGAYLGSAQEEDAAQSLPTAHVRPSHPLKSFAVPAVPAAGSAYDPTLPSTPLLTQQAPSHPVHSVKTASIGTLGRTRPPMPVVVPSAPDVQETTRMLEDSESSYEPDELTKEMAHLEGLMKDLNAITTA
modifications: Neogenin - Accession No. AAC59662

Legend:
[1] = tested on: RGC axons in injured optic nerve; experiment: Optic nerve crush, RGC axon regeneration (GAP-43) and intraretinal integrity; type: in vivo, rat; settings: GFAP staining
Method: All animals were female Sprague-Dawley rats weighing 250-300 g, which were kept in a pathogen free environment. […] Injections were performed using a 10-μl Hamilton syringe actuated by a computer controlled Picopump (World Precision Instruments). […] The needle was left in place for 10 min after each injection and slowly withdrawn to prevent reflux of the injected solutions up the needle tract.
Additionally, for crushing nerve surgical procedures, animals were placed in a stereotaxic frame and ventilated with isoflurane (2%; 0.8 L/min O2) through a gas anesthesia mask. […] The optic nerve was crushed using fine self-closing forceps for 6 seconds. Eventually, the orbital contents were gently returned to their original location and the initial incision was closed. Following surgery, under a heat lamp, animal were maintained at 37° C. in the normothermic condition and they were given Ketoprofen (5 mg/mL, dosage for rats: 0.1 mL/100 g bodyweight) and sterile saline to ease postsurgical recovery.
In order to evaluate the effects of 4Ig, N-Raft, and MβCD on RGC survival and regeneration after optic nerve crush, 4 μl intraocular injection of 4Ig (250 ng/μl) and N-Raft (150 ng/μl) solutions were delivered at 3 and 10 days after injury. Additionally, these two groups received 4Ig and N-Raft in a dose of 1 mg/kg, via intrajugular vein at 3 and 10 days postcrush. Separately, animals in MβCD group, received intraperitoneal injection of MβCD at 1000 mg/kg/week for 3 weeks after nerve crush on a once-a-day schedule. […]
The slides were then rinsed three times for 15 minutes in PBS before cover slipping with 50:50 glycerol/PBS. The total number of regenerating axon growth cones within bins of the optic nerve, beginning anterior to the crush site and proceeding distally, were quantified. […] A total of four equally spaced sections through the width of each optic nerve were examined and quantified using a Leica DM LFSA microscope (20× objective) with an Andor iXon 885+ camera, with EMgain applied.

[2] = tested on: injured spinal cord; experiment: Spinal cord injury, immunostaining and quantitative analysis (NeuN, GFAP, lesion volume); type: in vivo, rat; settings: after SCI

Row | Molecule | effect on astroglia cells [1] | effect on astrocytes (staining) [2]
1 | N-Raft: peptide spanning amino acids 28-73 of RGMa (SEQ ID NO:2) (SPCKILKCNSEFWAATSGSHHLGAEETPEFCTALRAYAHCTRRTAR; N-Raft - amino acids 28-73 of RGMa) | not affected | 
2 | methyl-β-cyclodextrin [MβCD, reference compound] | not affected | did not affect these cell populations
3 | B1 | not affected | did not affect these cell populations
